{
  "sequences": {"note": "Protein sequences, listed by entry. Tags and fused reporters are not part of them.", "UniProt P40337": "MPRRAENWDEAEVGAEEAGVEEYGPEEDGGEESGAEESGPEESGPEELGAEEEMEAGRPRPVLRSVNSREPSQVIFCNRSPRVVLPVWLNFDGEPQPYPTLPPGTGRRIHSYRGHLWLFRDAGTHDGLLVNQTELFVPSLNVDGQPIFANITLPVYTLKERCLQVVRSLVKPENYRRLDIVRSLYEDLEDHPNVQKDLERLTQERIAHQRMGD"},
  "source": "paper PMC7175249",
  "binders": {"B1": {"name": "Trp Asp repeat and suppressors of cytokine signaling box-containing protein 1 (WSB1) (enzyme, UniProt Q9Y6I7 1-421)", "chain": "MASFPPRVNEKEIVRLRTIGELLAPAAPFDKKCGRENWTVAFAPDGSYFAWSQGHRTVKLVPWSQCLQNFLLHGTKNVTNSSSLRLPRQNSDGGQKNKPREHIIDCGDIVWSLAFGSSVPEKQSRCVNIEWHRFRFGQDQLLLATGLNNGRIKIWDVYTGKLLLNLVDHTEVVRDLTFAPDGSLILVSASRDKTLRVWDLKDDGNMMKVLRGHQNWVYSCAFSPDSSMLCSVGASKAVFLWNMDKYTMIRKLEGHHHDVVACDFSPDGALLATASYDTRVYIWDPHNGDILMEFGHLFPPPTPIFAGGANDRWVRSVSFSHDGLHVASLADDKMVRFWRIDEDYPVQVAPLSNGLCCAFSTDGSVLAAGTHDGSVYFWATPRQVPSLQHLCRMSIRRVMPTQEVQELPIPSKLLEFLSYRI"}},
  "biological_target": "Endogenous pVHL (human (endogenous in MHCC-LM3)) (UniProt P40337)",
  "assay": "co-IP; endogenous proteins, MHCC-LM3 cells with NC or OTUD6B knockdown, treated with MG132 for 8 h, immunoprecipitation with control IgG or anti-pVHL antibodies",
  "note": "Results are given in words; binding and its absence hold for the method and conditions named. In cells and extracts the contact can be indirect. Some results given as binding are weak or reduced against the parent protein; the word gives no strength.",
  "data": [
    {"binder": "B1", "values": [
      {"measurement": "binding", "result": "binds"}
    ]}
  ]
}
